Data source: PubChem BioAssay AID686937 (Drosophila RNAi Screening Center, 2013)
Purpose: 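Genes whose loss weakens secretory pathway function in fly cells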 (primary screen). System: Drosophila S2 cells expressing secreted horseradish peroxidase. Reagent: long dsRNA against Drosophila genes. Time to read-out: about 5.5 days (5 days dsRNA, then 12 h reporter induction). Conditions: reporter expression induced after 5 days of dsRNA, read 12 h later; inducer not stated. Detection: 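Chemiluminescent measurement of peroxidase in the medium 12 h after reporter induction, following 5 days of dsRNA, given as a z-score per plate; higher means more secretion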. Direction: z-score: higher = more reporter secreted into medium.
In all, the deposit lists about 23,000 reagents; shown is an unselected part of those with a known target gene and a result. 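Reduced-secretion tags in replicate 1 do not always agree with the z-scores; no criterion for assigning the tags was given.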 Reagents against one gene are numbered here. Names joined by + are all predicted targets of the reagent. Not all columns of the deposit are shown. Reagent sequences are not shown. The record does not give: the amount of reagent.

For eIF3e, what was measured?
z-score, replicate 1: -4.19

How did the screen score CG7031?
z-score, replicate 1: -2.56

What did the screen give for CG11262?
z-score, replicate 1: 0.29

Which result is listed for djl?
z-score, replicate 1: 0.28

With cnc #1, how do the results read?
z-score, replicate 1: 0.47

What is on record for cnc #2?
z-score, replicate 1: 0.18

For cnc #3, what was measured?
z-score, replicate 1: -0.09

Which result is listed for cnc #4?
z-score, replicate 1: 0.22

What did the screen give for CR42785?
z-score, replicate 1: 0.39

With Rcd-1, what does the deposit list?
z-score, replicate 1: 0.37

With CG42560 + CG42559, how do the results read?
z-score, replicate 1: 0.27

An excerpt taken from the entries so far, as a working copy:
CG7031 → z-score, replicate 1 = -2.56
CG11262 → z-score, replicate 1 = 0.29
djl → z-score, replicate 1 = 0.28
cnc #1 → z-score, replicate 1 = 0.47

The listing continues:
For Ret #1, what was measured?
z-score, replicate 1: 0.44

For Ret #2, what was measured?
z-score, replicate 1: 0.51

With ox, what does the deposit list?
z-score, replicate 1: -0.94

What is on record for shv #1?
z-score, replicate 1: 0.22

For shv #2, how do the results read?
z-score, replicate 1: -0.29

What did the screen give for cid #1?
z-score, replicate 1: -0.84

With cid #2, what was measured?
z-score, replicate 1: 0.16

With TTLL5, what does the deposit list?
z-score, replicate 1: -0.01

With tsg, what was measured?
z-score, replicate 1: 0.4

What did the screen give for CG9287 #1?
z-score, replicate 1: -3.48

Which result is listed for CG9287 #2?
z-score, replicate 1: -0.01

What is on record for CG13000?
z-score, replicate 1: -0.79

What did the screen give for Or42b?
z-score, replicate 1: 0.13

For CG6847 #1, what does the deposit list?
z-score, replicate 1: -0.44

What did the screen give for CG6847 #2?
z-score, replicate 1: 0.13

For Jheh2, what does the deposit list?
z-score, replicate 1: 0.24
